Assay results taken from US20260193623.
The exact form of at least one protein or probe is not confirmed. Tags and fusion partners may be left off the protein sequences shown.

Columns and labels:
Experiment in all cases: activity assay
[1] = tested on: T1, MG155-3; settings: primer extension on general RNA; protein translated in vitro; protein details: N-terminal Strep; label: 5'-FAM primer; DNA:RNA hybrid
T1 sequence: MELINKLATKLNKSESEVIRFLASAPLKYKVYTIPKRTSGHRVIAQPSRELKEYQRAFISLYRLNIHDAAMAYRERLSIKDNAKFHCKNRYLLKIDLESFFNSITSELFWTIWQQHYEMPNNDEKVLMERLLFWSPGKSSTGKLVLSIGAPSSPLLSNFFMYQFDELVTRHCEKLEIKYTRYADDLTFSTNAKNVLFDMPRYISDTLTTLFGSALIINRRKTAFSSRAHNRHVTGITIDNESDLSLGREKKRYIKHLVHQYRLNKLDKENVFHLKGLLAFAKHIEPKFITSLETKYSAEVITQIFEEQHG

[2] = tested on: T2, MG153-42; settings: primer extension gel; 3 mM MgCl2, 37 C; protein translated in vitro; protein details: N-terminal Strep; label: 5'-FAM primer; DNA:RNA hybrid
T2 sequence (limits assumed): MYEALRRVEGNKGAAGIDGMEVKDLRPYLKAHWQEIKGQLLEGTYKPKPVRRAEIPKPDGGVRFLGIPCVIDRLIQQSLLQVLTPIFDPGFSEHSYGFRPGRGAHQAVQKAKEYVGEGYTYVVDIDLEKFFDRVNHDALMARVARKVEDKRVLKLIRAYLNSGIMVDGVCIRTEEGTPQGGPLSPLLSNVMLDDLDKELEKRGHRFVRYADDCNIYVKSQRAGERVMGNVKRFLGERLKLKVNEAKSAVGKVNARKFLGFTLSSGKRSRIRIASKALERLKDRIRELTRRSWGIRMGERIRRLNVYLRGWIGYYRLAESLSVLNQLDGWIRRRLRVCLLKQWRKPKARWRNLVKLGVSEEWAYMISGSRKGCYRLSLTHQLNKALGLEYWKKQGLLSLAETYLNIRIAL

[3] = tested on: T3, MG151-92; settings: primer extension gel; protein translated in vitro; protein details: Strep, RT-RNase H trim; label: 5'-FAM primer; DNA:RNA hybrid
T3 sequence: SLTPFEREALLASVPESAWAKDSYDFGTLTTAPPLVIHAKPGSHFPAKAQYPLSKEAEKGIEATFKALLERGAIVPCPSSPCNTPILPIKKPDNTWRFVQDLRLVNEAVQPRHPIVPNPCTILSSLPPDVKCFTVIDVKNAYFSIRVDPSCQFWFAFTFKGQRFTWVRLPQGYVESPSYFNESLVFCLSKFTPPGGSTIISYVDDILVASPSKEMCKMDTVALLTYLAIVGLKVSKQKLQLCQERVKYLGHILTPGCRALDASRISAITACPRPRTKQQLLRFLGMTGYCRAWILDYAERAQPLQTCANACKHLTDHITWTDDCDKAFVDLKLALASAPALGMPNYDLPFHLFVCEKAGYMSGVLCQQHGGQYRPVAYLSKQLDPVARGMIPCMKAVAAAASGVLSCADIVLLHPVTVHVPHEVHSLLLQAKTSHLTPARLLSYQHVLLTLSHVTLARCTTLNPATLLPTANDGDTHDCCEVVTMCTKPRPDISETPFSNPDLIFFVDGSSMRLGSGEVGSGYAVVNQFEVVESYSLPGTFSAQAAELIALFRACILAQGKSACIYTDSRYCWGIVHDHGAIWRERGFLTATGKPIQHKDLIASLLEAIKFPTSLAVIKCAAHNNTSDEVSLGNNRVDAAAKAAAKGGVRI

[4] = tested on: T4, MG151-93; settings: primer extension gel; protein translated in vitro; protein details: Strep, RT-RNase H trim; label: 5'-FAM primer; DNA:RNA hybrid
T4 sequence: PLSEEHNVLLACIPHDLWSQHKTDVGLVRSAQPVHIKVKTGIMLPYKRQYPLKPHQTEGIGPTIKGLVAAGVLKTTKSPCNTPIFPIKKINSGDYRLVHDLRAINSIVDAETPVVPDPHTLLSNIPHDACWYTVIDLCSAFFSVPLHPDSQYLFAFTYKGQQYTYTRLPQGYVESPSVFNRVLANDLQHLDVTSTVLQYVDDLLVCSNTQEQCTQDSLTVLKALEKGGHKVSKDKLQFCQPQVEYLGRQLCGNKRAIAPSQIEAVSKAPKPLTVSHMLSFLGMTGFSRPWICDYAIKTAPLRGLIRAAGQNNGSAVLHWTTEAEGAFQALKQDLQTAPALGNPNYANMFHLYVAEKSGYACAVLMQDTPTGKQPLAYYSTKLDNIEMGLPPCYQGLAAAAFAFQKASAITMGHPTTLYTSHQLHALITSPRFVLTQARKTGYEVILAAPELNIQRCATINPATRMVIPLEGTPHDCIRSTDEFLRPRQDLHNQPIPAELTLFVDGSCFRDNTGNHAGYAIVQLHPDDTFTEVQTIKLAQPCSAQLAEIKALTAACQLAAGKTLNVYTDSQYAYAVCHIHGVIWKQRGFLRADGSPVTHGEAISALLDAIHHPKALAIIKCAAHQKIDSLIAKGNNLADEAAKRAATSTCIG

[5] = tested on: T5, MG160-1; settings: primer extension gel and qPCR; protein translated in vitro; protein details: N-terminal Strep; label: 5'-FAM primer; DNA:RNA hybrid
T5 sequence (limits assumed): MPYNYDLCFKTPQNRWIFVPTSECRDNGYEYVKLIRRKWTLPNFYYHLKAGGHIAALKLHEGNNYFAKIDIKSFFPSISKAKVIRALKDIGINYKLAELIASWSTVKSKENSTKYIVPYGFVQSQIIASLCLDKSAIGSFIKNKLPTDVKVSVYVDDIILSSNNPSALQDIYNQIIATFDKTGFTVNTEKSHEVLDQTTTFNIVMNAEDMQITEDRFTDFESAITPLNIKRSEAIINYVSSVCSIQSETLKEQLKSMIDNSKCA

[6] = tested on: T6, MG153-9; settings: primer extension gel; 3 mM MgCl2, 37 C; protein translated in vitro; protein details: N-terminal Strep; label: 5'-FAM primer; DNA:RNA hybrid
T6 sequence (limits assumed): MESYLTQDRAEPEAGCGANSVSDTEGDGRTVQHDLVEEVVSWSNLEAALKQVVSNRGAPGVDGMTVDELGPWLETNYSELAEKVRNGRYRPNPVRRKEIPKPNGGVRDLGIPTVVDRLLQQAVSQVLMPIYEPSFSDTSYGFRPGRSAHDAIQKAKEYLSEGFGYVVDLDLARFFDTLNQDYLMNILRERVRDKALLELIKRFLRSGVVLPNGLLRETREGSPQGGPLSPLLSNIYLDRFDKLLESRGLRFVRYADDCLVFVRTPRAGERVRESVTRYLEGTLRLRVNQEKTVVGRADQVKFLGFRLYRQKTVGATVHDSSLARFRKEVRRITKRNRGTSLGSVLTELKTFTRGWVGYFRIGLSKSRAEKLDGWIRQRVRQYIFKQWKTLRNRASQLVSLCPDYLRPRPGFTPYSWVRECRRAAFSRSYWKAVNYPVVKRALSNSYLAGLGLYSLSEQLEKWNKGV

Measured: activity on this sequence

GGCAAACCGCCTCTCCCCGCGCGTTGGCCGATTCATTAATGCAGCTGGCACGACAGGTTTCCCGACTGGAAAGGAGACCCGGGCAGTGAGCGCAACGGGTCTCCAATTTAAGCCAGCCCCGACACCCGCCAACACCCGCTGACGCGCCCTGACGGGCTTGTCTGCTCCCGGCATCCGCTTACAGACAAGCTGTGACCGTCTC / GAGACGGTCACAGCTTGTCTG [202-nt RNA template annealed to DNA primer]
active: all assays above
